± gives the standard deviation of the averaged measurements. Whole data set: some 3,800 compounds, median “cell shape (eccentricity) Z-score vs DMSO control” near 1.1, cut for the lowest 2% near -4.7. The list shows a part of the results.
test system: human monocyte-derived macrophages (M0); assay: cell shape (eccentricity) Z-score vs DMSO control; higher = more elongated, M2-like morphology; conditions: 20 µM; 24 h; macrophage state: M0 (M-CSF)
Method: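 Primary human monocyte-derived macrophages (M-CSF differentiated, pooled from 4 donors, 5000 cells/well in 384-well plates) were treated with each compound at 20 uM for 24 h, then fixed and stained with phalloidin/DAPI and imaged on an Opera Phenix (6 fields, about 1000 cells/well). Cell eccentricity was measured with CellProfiler, and a Z-score (t-test) was computed against 4 DMSO control wells in the same row. Negative values mean round (M1-like) cells and positive values mean elongated (M2-like) cells; the paper's hit cutoffs are Z <= -4 (M1) and Z >= 6 (M2). Scale: negative = round, M1-like.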

SMILES | cell shape (Z-score)
CC(C)C12CC1C(C)(O[C@@H]1O[C@H](CO)[C@@H](O)[C@H](O)[C@H]1O)CC2=O (stereo partly specified) | 1.52
COc1cc2c(cc1OC)C(=O)CC2 | 1.81
CC1(C)CC[C@]2(C(=O)OC3OC(CO)C(O)C(O)C3O)CC[C@]3(C)C(=CCC4[C@@]5(C)CC[C@H](OC6OC(C(=O)O)C(O)C(O)C6O)C(CO)(CO)C5CC[C@]43C)[C@@H]2C1 (stereo partly specified) | -0.601
COC(=O)C(CCCNC(=N)N)NC(=O)CCCc1c(-c2ccccc2)[nH]c2c(F)cc(F)cc12 (stereo unspecified) | 6.11
Cc1ccnc(NS(=O)(=O)c2ccc(N)cc2)n1 | 1.19
COC(=O)Nc1nc2cc(SC(C)C)ccc2[nH]1 | -4.88 ± 0.16
COc1ccc(/C=C/C(=O)c2c(-c3ccccc3)c3ccccc3[nH]c2=O)cc1 | 2.88
CCC(=C(c1ccccc1)c1ccc(OCCN(C)C)cc1)c1ccccc1 | -1.43
C=C1C(=O)O[C@H]2C[C@@H](C)[C@@H]3CCC(=O)[C@@]3(C)C[C@H]12 | -2.44
COCCOC(=O)C1=C(C)NC(C)=C(C(=O)OC(C)C)C1c1cccc([N+](=O)[O-])c1 (stereo unspecified) | 4.62
CC(C)Cc1cnc(CCC(N)=O)c(=O)[nH]1 | -0.681
CC(=O)OC[C@H]1O[C@@H](Oc2c(-c3ccc(O)cc3)oc3cc(O)cc(O)c3c2=O)[C@H](O)[C@@H](O)[C@@H]1O | 1.79
OCC(Cc1ccc2c(c1)OCO2)C(CO)Cc1ccc2c(c1)OCO2 (stereo unspecified) | 1.02 ± 0.32
c1ccc(-c2nc3ccccc3[nH]2)cc1 | 1.25
O=C1OCc2cc3cccc(O[C@@H]4O[C@H](CO[C@@H]5OC[C@@H](O)[C@H](O)[C@H]5O)[C@@H](O)[C@H](O)[C@H]4O)c3c(O)c21 | 3.35
C=CC1CN(C(C)=O)CCC1CCC(=O)c1ccnc2ccccc12 (stereo unspecified) | -1.55
C=C[C@@]1(C)CC(=O)[C@]2(O)[C@@]3(C)[C@@H](O)CCC(C)(C)[C@@H]3[C@H](O)[C@H](OC(=O)CCCN3CCN(C)CC3)[C@@]2(C)O1 | 2.22
COc1ccc(C(C)C(=O)c2ccc(O)cc2O)cc1O (stereo unspecified) | 2.94 ± 1.8
CC(=O)O[C@@H]1[C@@H](OC(=O)/C=C/c2ccccc2)[C@H](C)O[C@@H](O[C@H]2[C@@H]3C=CO[C@@H](O[C@@H]4O[C@H](CO)[C@@H](O)[C@H](O)[C@H]4O)[C@@H]3[C@@]3(CO)O[C@@H]23)[C@@H]1OC(C)=O | 1.75
CC1=CC(=O)CC(C)(C)[C@@]1(O)/C=C/C(C)=C\C(=O)O | 0.468
CCCCCC[C@H](O)[C@@H]1C[C@@H](O)C2=C(O1)[C@@H](O)CCC2=O | 0.424 ± 3.9
CC[C@@]1(O)C(=O)OCc2c1cc1n(c2=O)Cc2cc3cc(O)ccc3nc2-1 | 0.605
CC1(C)CC[C@@]2(C(=O)O[C@@H]3O[C@H](CO)[C@@H](O)[C@H](O)[C@H]3O)C(C1)C1=CCC3[C@@]4(C)CC[C@@H](O[C@@H]5O[C@H](C(=O)O)[C@@H](O[C@@H]6OC[C@@H](O)[C@H](O)[C@H]6O)[C@H](O)[C@H]5O)C(C)(C)C4CC[C@@]3(C)[C@]1(C)C[C@H]2O (stereo partly specified) | 1.81
COC(=O)C1=COC(OC2OC(CO)C(O)C(O)C2O)C2C1C=CC2(O)CO (stereo unspecified) | 0.394
CC1OC(O[C@H]2CC[C@@]3(C)C(CC[C@]4(C)C3CC=C3[C@@H]5CC(C)(C)C[C@@H](O)[C@]5(C)CC[C@]34C)[C@@]2(C)CO)C(OC2OC(C(=O)O)C(O)C(O)C2OC2OCC(O)C(O)C2O)C(O)C1O (stereo partly specified) | 2.43
Cc1c(O)cc2c(c1O)C(=O)CC(c1ccccc1)O2 (stereo unspecified) | 0.559

Molecules from the list above with four or more nitrogen atoms (2):
SMILES | cell shape (Z-score)
COC(=O)C(CCCNC(=N)N)NC(=O)CCCc1c(-c2ccccc2)[nH]c2c(F)cc(F)cc12 (stereo unspecified) | 6.11
Cc1ccnc(NS(=O)(=O)c2ccc(N)cc2)n1 | 1.19

(further entries)

SMILES | cell shape (Z-score)
CCC1=C(C)CN(C(=O)NCCc2ccc(S(=O)(=O)NC(=O)NC3CCC(C)CC3)cc2)C1=O (stereo unspecified) | 4.63
CN1CCN(CC(=O)N2c3ccccc3C(=O)Nc3cccnc32)CC1 | 2.02
C=C(C)C1Cc2cc(C(C)=O)ccc2O1 (stereo unspecified) | 2.02 ± 0.97
COc1ccc(/C=C/C(=O)O[C@H]2[C@@H]3C=CO[C@@H](O[C@@H]4O[C@H](CO)[C@@H](O)[C@H](O)[C@H]4O)[C@@H]3[C@@]3(CO)O[C@@H]23)cc1O | 1.15
C[C@@H]1CN([C@H](C)CO)C(=O)c2cccc(NC(=O)c3ccncc3)c2O[C@H]1CN(C)Cc1ccc2c(c1)OCO2 | 0.76
CCCc1c(C(=O)O)cc2c(c1O)C(=O)c1c(O)cccc1C2=O | 1.56
CC1=C(/C=C/C(C)=C/C=C/C(C)=C/CO)C(C)(C)CCC1 | 0.442
O=C(O)c1ccc2c3c1cccc3c(=O)n1c3ccccc3nc21 | 1.59
O=c1c(O[C@@H]2OC[C@H](O)[C@H](O)[C@H]2O)c(-c2ccc(O)c(O)c2)oc2cc(O)cc(O)c12 | 1.8
Oc1ccc(Nc2nc(-c3ccc(Cl)cc3)cs2)cc1 | 0.945
Oc1cccc2[nH]ccc12 | 1.88
c1nc(CC2CCNCC2)c[nH]1 | 2.69
O=CNCCc1c[nH]c2ccccc12 | 1.21
O=C(Nc1ccccc1)N1CCC(Cc2cnc3ccccc3c2)CC1 | 1.19
C=C1C(=O)O[C@@H]2C=C(C)[C@@H]3CC[C@@](C)(O)[C@@H]3C[C@H]12 | -2.609 ± 0.01
NC(=O)N1c2ccccc2C=Cc2ccccc21 | 3.81
CCN(CC)CCOC(=O)c1ccc(N)cc1 | 0.0479
COc1cc(N)c(Cl)cc1C(=O)N[C@@H]1CCNCC1OC (stereo partly specified) | 0.342
COC(=O)C1=C(C)NC(C)=C(C(=O)OCCN(C)Cc2ccccc2)C1c1cccc([N+](=O)[O-])c1 (stereo unspecified) | 1.21
C=CC(C)(O)CCC1(C)C2=C(C(OC(C)=O)C(OC(C)=O)C1C)C(C)(C)CCC2 (stereo unspecified) | 2.73
CCCC[C@@H](O)c1cc(OC)cc(=O)o1 | -0.886 ± 4.1
Nc1nnc(-c2cccc(Cl)c2Cl)c(N)n1 | -1.25
C/C(=C/CCC(CO)C1CCC2(C)C3CCC4C(C)(C)C(OC5OC(CO)C(O)C(O)C5O)CCC45CC35CCC12C)COC1OC(COC2OC(CO)C(O)C(O)C2O)C(O)C(O)C1O (stereo unspecified) | -1.37
C[C@@H]1CC[C@]2(C(=O)O)CC[C@]3(C)C(=CCC4[C@@]5(C)CC[C@@H](O)[C@](C)(C(=O)O)C5CC[C@]43C)C2[C@H]1C (stereo partly specified) | 0.305 ± 2.9
CC1(C)CC[C@]2(C(=O)O[C@@H]3O[C@H](CO)[C@@H](O)[C@H](O)[C@H]3O)CC[C@]3(C)C(=CCC4[C@@]5(C)CC[C@H](O[C@@H]6O[C@H](C(=O)O)[C@@H](O)[C@H](O)[C@H]6O)[C@@](C)(CO)C5CC[C@]43C)C2C1 (stereo partly specified) | 0.209
